According to paper doi:10.1101/2022.10.06.511230:
These are yes or no findings as the source states them, for the method shown. Some binding calls cover weakened binding; strength is not graded here.

Molecular target: T1, Syn6803 RNAP β subunit (Synechocystis sp. PCC 6803) (UniProt P77965)
T1 sequence: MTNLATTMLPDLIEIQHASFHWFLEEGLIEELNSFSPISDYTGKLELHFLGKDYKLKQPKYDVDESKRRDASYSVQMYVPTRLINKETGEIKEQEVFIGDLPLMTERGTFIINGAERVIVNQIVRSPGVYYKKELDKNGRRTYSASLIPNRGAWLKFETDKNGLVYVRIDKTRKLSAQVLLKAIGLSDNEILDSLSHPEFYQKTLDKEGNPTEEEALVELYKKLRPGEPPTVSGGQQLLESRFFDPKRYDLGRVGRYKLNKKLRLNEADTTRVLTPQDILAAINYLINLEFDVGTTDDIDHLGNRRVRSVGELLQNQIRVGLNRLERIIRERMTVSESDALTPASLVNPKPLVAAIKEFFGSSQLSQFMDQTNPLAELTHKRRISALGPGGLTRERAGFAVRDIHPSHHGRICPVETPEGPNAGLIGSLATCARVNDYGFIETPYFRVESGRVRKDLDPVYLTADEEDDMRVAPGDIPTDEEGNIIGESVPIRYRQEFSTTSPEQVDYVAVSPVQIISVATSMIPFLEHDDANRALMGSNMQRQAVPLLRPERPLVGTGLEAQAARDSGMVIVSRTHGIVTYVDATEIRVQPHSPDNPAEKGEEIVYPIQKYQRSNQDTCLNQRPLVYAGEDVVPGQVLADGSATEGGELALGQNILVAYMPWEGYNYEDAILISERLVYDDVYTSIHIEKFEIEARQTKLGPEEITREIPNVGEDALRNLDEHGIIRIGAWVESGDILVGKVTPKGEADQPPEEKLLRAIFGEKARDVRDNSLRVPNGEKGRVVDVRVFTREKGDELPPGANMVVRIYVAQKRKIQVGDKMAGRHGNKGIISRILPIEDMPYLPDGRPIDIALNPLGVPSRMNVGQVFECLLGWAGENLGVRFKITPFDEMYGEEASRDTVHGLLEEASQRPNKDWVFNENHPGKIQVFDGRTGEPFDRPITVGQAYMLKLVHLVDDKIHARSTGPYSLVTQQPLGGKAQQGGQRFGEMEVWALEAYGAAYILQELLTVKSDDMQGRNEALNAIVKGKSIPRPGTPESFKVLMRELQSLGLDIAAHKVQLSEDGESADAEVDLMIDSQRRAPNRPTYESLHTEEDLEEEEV
Assay: cryo-EM structure

- binding: binds
B1: Syn6803 RNAP β′2 subunit (holds the SI3 insertion of the Trigger Loop) (protein, UniProt P73334 1-1317)
chain: MTFYNYTIDKGRLKKLIALAYRRYGSARCSQLADELKELGFRFATKAGVSISVDDLTIPPEKKQMLEAAEKEIRTTEERYARGEITEVERFQKVIDTWNGTSEELKDQVVVNFRKTDPLNSVYMMAFSGARGNMSQVRQLVGMRGLMADPQGEIIDLPIKTNFREGLTVTEYVISSYGARKGLVDTALRTADSGYLTRRLVDVSQDVIVREQDCGTERSLRVTAMTDGDQVKISLADRLFGRLLAKDVVGPDGEIIAKRNDEIDEALANRIAAVTDEVYVRSPLTCEAARSVCQNCYGWSLAHGHKVDLGEAVGIIAAQSIGEPGTQLTMRTFHTGGVFTGEVARQEKAPEDGTVKWGKGLSTRKVRTRHGEDAEQVEIAGDLIWKGEGKKAATQTYSLTPGSLLFVQDGQTVTAGQLMTEISLSKTQRSTERATKDVAGDLAGEVLFDRLVPEEKTDRQGNTTRIAQRGGLVWILSGEVYNLPPGAEPVVKNDEQVEVGSIMAETKLVTNDGGVVRLVSNREIEIITASVLLDQAQVKLESSGGREQYVIYTADKQRFLLKAAPGTKVQNHSIVAELIDDRYRTTTGGMIRYAGVEVAKGGRKQGYEVTKGGTLLWIPEETHEINKDISLLIVEDGQYVEAGTEVVKDIFCQSSGIVEVVQKNDILREIIIKPGDFYQDVDPGSVKIESGQLLQPGQDVFPGVTVSTLSQAEWIESPEGNGLLLRPVEEYKVFDEPAAPSQGSQNEEGGRQIELRSVQRLFYKDGDRVKSVEGAPLLSTQLVLEIYGSGNEGISHLSADIELQDDEEEDCQRLQLVILESLVLRRDQESDPLGGASKTRLLVQDGDQIPPGAVVARTEIQCKEAGTVRGIKEGQESIRRVLLERAADRLVVDLPSAPEVKPGQLLVAGQELVPGVKLEESGKVLEINGKGDNYQLVLRRARPYRVSPGAVLHIEDGDLVQRGDNLVLLVFERAKTGDIVQGLPRIEELLEARKPKEACVLARAPGVCQVEYLEDESVDIKVVEDDGTVSEYPLLPGQNAMVTDGQRIDVGHALTDGYNNPHEILDVFFSYYVDKDGCYQAALRGLQAAQKFLVNEVQTVYQSQGVDISDKHIEVIVRQMTAKVRIDDGGDTTMLPGELVELRQVEQVNEAMGITGSAPARYTPVLLGITKASLNTDSFISAASFQETTRVLTEAAIEGKSDWLRGLKENVIIGRLIPAGTGFSSHEEVLGLIETQDDIQGYMIEPIELPTTKKKASATKVKTKKVEADDDLLDDTRARAYAGTQLSQDDEEFEETYDTDEDDFDMDDDDDFGDDED
